Most values lie at the floor of the assay. Slopes are relative: functional sequences can read slightly below zero.
Each substance was assayed on Saccharomyces cerevisiae PS128 hsf1 delta, HSF1(1-493) fusion (assay: growth estimate (transactivation domain function in HSF1 fusion, heat-shock survival) (a.u. (slope of normalised read count over time)); higher = stronger growth at 37°C, i.e. more transactivation activity). Settings: library: random library.
For RKRTVSARPAPFQKFDGLME, the growth estimate was less than -0.25.
FNALLHQRHGYGIIRTADI gave a growth estimate of less than -0.25.
For RSWLISQPCSEITGGLDL, the growth estimate was less than -0.25.
For SGTQPEGDGHWRSTPELCLR, the growth estimate was less than -0.25.
Work on SGSASRTDMKQSGNPVGRCL yielded a growth estimate of less than -0.25.
HSMPMRDLSAEGP gave a growth estimate of less than -0.25.
Work on LVKVVRTKSR yielded a growth estimate of less than -0.25.
In the case of QLQRLRLVFKLEILKTKCDP, the growth estimate is reported as less than -0.25.
In the case of SPRVG, the growth estimate is reported as less than -0.25.
RITTRLAIFRSNKRISFA gave a growth estimate of -0.199.
GPRALVENLMGQLERLREIL was tested, and the growth estimate was less than -0.25.
With LMRQDPVINGPGDRGRLRSA the growth estimate was -0.223.
LFYGTA showed a growth estimate of less than -0.25.
RVWG gave a growth estimate of -0.246.
For ACRESAQQDPEAS, the growth estimate was less than -0.25.
In the case of STLGGCPYNCRTWTVIPIGV, the growth estimate is reported as less than -0.25.
DTGSHIIRPPLRS was tested, and the growth estimate was less than -0.25.
In the case of ITINAIHLMPPVISVSTVE, the growth estimate is reported as less than -0.25.
For QGELNILGVGGSLPVRLYAD, the growth estimate was less than -0.25.
Substance RMLYYK has a growth estimate of less than -0.25.
VSLPGSTPSVARLQTMRMGR showed a growth estimate of less than -0.25.
For HRRHAYTTKVGRVIKVLVVS, the growth estimate was less than -0.25.
LDRHGHSRLYGTSFVSAA gave a growth estimate of less than -0.25.
RIPRG gave a growth estimate of less than -0.25.
Substance YCLAALSSGLNIEMISVGRK has a growth estimate of less than -0.25.
In the case of PIPSDDRRARGRTPRGVTGR, the growth estimate is reported as less than -0.25.
In the case of GHPGGGGGAQGGTRSIFSVP, the growth estimate is reported as less than -0.25.
VSVAVRVPLRCTNGTASEKR was tested, and the growth estimate was less than -0.25.
STI was tested, and the growth estimate was less than -0.25.
In the case of YRLIGSTKGIWVPFLYYLLR, the growth estimate is reported as less than -0.25.
In the case of DLGYS, the growth estimate is reported as less than -0.25.
ITL gave a growth estimate of less than -0.25.
SATDRNDSRLLRWHFLIRRL was tested, and the growth estimate was less than -0.25.
ILRGP gave a growth estimate of less than -0.25.
For RIFVRERSRA, the growth estimate was less than -0.25.
AFVSPIKNKLSNRMRQTCSF gave a growth estimate of less than -0.25.
Substance GGKWIREIDGVINRTRRSGL has a growth estimate of less than -0.25.
RCFGPACEVWSR gave a growth estimate of less than -0.25.
With FSDS the growth estimate was less than -0.25.
In the case of HLQGSNIYH, the growth estimate is reported as less than -0.25.
Substance TKVAQQAS has a growth estimate of less than -0.25.
Substance TSGTLRLDYLRWSVMLA has a growth estimate of less than -0.25.
With PRVPYGS the growth estimate was less than -0.25.
Work on ARDRGFACHGPMTLPGSRRT yielded a growth estimate of less than -0.25.
Substance SLGG has a growth estimate of less than -0.25.
For LSVISPCSDRSRRCGCATYE, the growth estimate was less than -0.25.
Substance RQYGGIGGDHKLQLTITDRR has a growth estimate of less than -0.25.
With TRVFGSSPLGLFRFDAEALA the growth estimate was less than -0.25.
Substance LRVQGKYRVSLFYAVIPVIA has a growth estimate of less than -0.25.
For WSGICPVGGVWRGPRWTPWR, the growth estimate was less than -0.25.
In the case of VLVWVATEPVIRTFGEAVQS, the growth estimate is reported as less than -0.25.
CTSFPSDARILVLDPDN gave a growth estimate of less than -0.25.
RRMPKVGARSLIGSKYVL was tested, and the growth estimate was less than -0.25.
Substance LGRVVRRADRRAVHITAGGM has a growth estimate of less than -0.25.
For DPRNRCTELMRS, the growth estimate was less than -0.25.
In the case of GWYSGWRRLGLGDASDQVAA, the growth estimate is reported as less than -0.25.
In the case of VLRGGRELAHWPSGSGGASV, the growth estimate is reported as less than -0.25.
IDGIA showed a growth estimate of less than -0.25.
PVVRCITEGLRGPHIGVARA showed a growth estimate of less than -0.25.
For YLLV, the growth estimate was less than -0.25.
IVLWPRGISRTCR gave a growth estimate of -0.248.
In the case of RNPRPGLSGSLTPLANPRRS, the growth estimate is reported as less than -0.25.
Work on PMSAESCTKARLDILLSKIL yielded a growth estimate of less than -0.25.
PRGARGRSVYPQNQPMVRGS showed a growth estimate of less than -0.25.
EVRSRDAFWLKRWNRSPRDQ gave a growth estimate of less than -0.25.
In the case of EGERAPACI, the growth estimate is reported as less than -0.25.
In the case of SRTNLMSKDWVSINMGPYCW, the growth estimate is reported as less than -0.25.
For TGAYQRIGKRRRTPGTGCKE, the growth estimate was less than -0.25.
LTYVAYPTAPTVGGSNVGSL showed a growth estimate of 0.0084.
Work on LAEMKESRFGISSCTW yielded a growth estimate of less than -0.25.
RGTFLLFRSGRSIT was tested, and the growth estimate was less than -0.25.
Substance ITLDLG has a growth estimate of less than -0.25.
Work on SLDSGGWSQRLLQY yielded a growth estimate of less than -0.25.
In the case of HYQFINPHRGGLLQGRRPPS, the growth estimate is reported as less than -0.25.
Substance TPPVPRRRMG has a growth estimate of less than -0.25.
Work on FPVEDPVQTR yielded a growth estimate of less than -0.25.
For GFMFIRLCITL, the growth estimate was less than -0.25.
With VRLKRQVDRGVHIPMGNKTS the growth estimate was less than -0.25.
Work on RTMLALGLALKKSFCWGSGT yielded a growth estimate of less than -0.25.
